Measurements reported in PubChem BioAssay AID504771 (Drosophila RNAi Screening Center, 2011).
The reagents shown are a selection, not the whole library. 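All genes were primary candidates; inactive means validation failed, not no effect; aggregate scores behind calls are not deposited.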 A plus sign joins genes that one reagent is predicted to hit. Reagent sequences are not shown.

Screen: 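Knock-downs that increase or decrease Htt-Q46 aggregates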 (follow-up of hits)
System: Drosophila S2 cells with copper-inducible mutant huntingtin exon 1 (46 glutamines)-eGFP
Knock-down reagent: long dsRNA against Drosophila genes, 250 ng dsRNA per well
Timing: 3 days of knock-down, then 2 days of copper induction before fixing
Conditions: copper sulfate at 400 µM to switch on Htt-Q46-eGFP expression
Measurement: 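Automated image analysis of GFP-tagged aggregates per well: number, size and intensity against plate mean and SD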
Call rule: 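Primary candidate if any aggregate measure lay more than 2 SD from the plate mean; active only if it then passed checks for off-target effects, reproducibility, independent dsRNAs and a promoter counter-screen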
Meaning of the calls: active = confirmed modifier; inactive = primary candidate not confirmed

target,dsRNA,aggregation phenotype,call
CG2685 (GeneID 31259),DRSC18463,knock-down lowers aggregates,inactive
CG32365 (GeneID 38876),DRSC10977,knock-down lowers aggregates,inactive
CG6015 (GeneID 42593),DRSC15948,knock-down lowers aggregates,inactive
ras (GeneID 43873),DRSC18825,knock-down lowers aggregates,inactive
Prp16 (GeneID 32373),DRSC19542,knock-down lowers aggregates,inactive
SMC2 (GeneID 36653),DRSC07544,knock-down lowers aggregates,inactive
RpL35 (GeneID 31483),DRSC18347,knock-down lowers aggregates,inactive
Dhfr (GeneID 42003),DRSC16646,knock-down lowers aggregates,inactive
Pp1-Y1 (GeneID 5740113),DRSC20896,knock-down lowers aggregates,inactive
Prp38 (GeneID 35934),DRSC07060,knock-down lowers aggregates,inactive
DCP2 (GeneID 39722),DRSC10597,knock-down raises aggregates,inactive
aurB (GeneID 34504),DRSC23324,knock-down lowers aggregates,inactive
hoip (GeneID 44173),DRSC03546,knock-down lowers aggregates,inactive
omd (GeneID 41674),DRSC16507,knock-down raises aggregates,active
fand (GeneID 36514),DRSC06967,knock-down lowers aggregates,active
E2f1 (GeneID 42550),DRSC16655,knock-down raises aggregates,inactive
Sin3A (GeneID 36382),DRSC07552,knock-down raises aggregates,active
lic (GeneID 32257),DRSC20347,,active
Csl4 (GeneID 34548),DRSC22664,knock-down lowers aggregates,inactive
Prosbeta3 (GeneID 41079),DRSC16801,knock-down lowers aggregates,inactive
tho2 (GeneID 326153),DRSC00646,knock-down lowers aggregates,inactive
Prp18 (GeneID 42285),DRSC16802,knock-down lowers aggregates,inactive
Uev1A (GeneID 38613),DRSC09763,knock-down raises aggregates,inactive
RpS13 (GeneID 34149),DRSC03419,knock-down lowers aggregates,inactive
Cap-G (GeneID 36440),DRSC21805,knock-down lowers aggregates,inactive
gammaCOP (GeneID 43717),DRSC16955,knock-down lowers aggregates,inactive
CG33271 (GeneID 2768972),DRSC10583,knock-down raises aggregates,inactive
ND-MNLL (GeneID 31697),DRSC18159,knock-down raises aggregates,inactive
CG33272 (GeneID 2768958),DRSC09116,knock-down raises aggregates,inactive
MED1 (GeneID 40403),DRSC11808,knock-down lowers aggregates,inactive
CG33639 (GeneID 32803),DRSC22820,knock-down raises aggregates,inactive
Sr-CI (GeneID 33621),DRSC00790,knock-down raises aggregates,inactive
CG13185 (GeneID 36268),DRSC06310,knock-down lowers aggregates,inactive
TfIIB (GeneID 34430),DRSC03454,knock-down lowers aggregates,inactive
U2af50 (GeneID 32602),DRSC20297,knock-down lowers aggregates,inactive
U2af50 (GeneID 32602),DRSC22867,knock-down lowers aggregates,inactive
zetaCOP (GeneID 39862),DRSC11412,knock-down lowers aggregates,inactive
gish (GeneID 49701),DRSC16154,knock-down raises aggregates,inactive
Mtr4 (GeneID 48782),DRSC03560,knock-down lowers aggregates,active
Pitslre (GeneID 40292),DRSC23346,knock-down lowers aggregates,inactive
CG11566 (retired record) + stg1,DRSC20483,knock-down raises aggregates,inactive
Cul1 (GeneID 35742),DRSC07645,knock-down raises aggregates,inactive
Tango6 (GeneID 35155),DRSC02671,knock-down lowers aggregates,active
Hsp83 (GeneID 38389),DRSC08664,knock-down raises aggregates,active
beta'COP (GeneID 45757),DRSC03492,knock-down lowers aggregates,inactive
CG7214 (GeneID 34053),DRSC03028,knock-down lowers aggregates,inactive
Sod1 (GeneID 39251),DRSC11286,knock-down raises aggregates,inactive
lwr (GeneID 33226),DRSC00828,knock-down lowers aggregates,active
Polr2L (GeneID 42942),DRSC14630,knock-down lowers aggregates,inactive
RpS14b (GeneID 47219),DRSC18711,knock-down lowers aggregates,inactive
CG13739 (GeneID 35957),DRSC06410,knock-down lowers aggregates,inactive
RpL10 (GeneID 43864),DRSC11947,knock-down lowers aggregates,inactive
mahj (GeneID 37462),DRSC04053,knock-down lowers aggregates,active
Mfap1 (GeneID 38256),DRSC08154,knock-down lowers aggregates,inactive
Stip1 (GeneID 33202),DRSC00756,knock-down raises aggregates,active
Bap60 (GeneID 32268),DRSC19337,knock-down lowers aggregates,inactive
CRIF (GeneID 40395),DRSC11811,knock-down lowers aggregates,inactive
Tif-IA (GeneID 35454),DRSC03726,knock-down lowers aggregates,inactive
Sf3b1 (GeneID 33235),DRSC00535,knock-down lowers aggregates,inactive
Klp98A (GeneID 43310),DRSC21834,knock-down lowers aggregates,inactive
sbr (GeneID 43944),DRSC20368,knock-down lowers aggregates,inactive
CG32318 + Klp61F + Psf1,DRSC23255,knock-down lowers aggregates,inactive
fzy (GeneID 34968),DRSC03534,knock-down lowers aggregates,inactive
eRF1 (GeneID 40240),DRSC11779,knock-down lowers aggregates,inactive
Spc105R (GeneID 40300),DRSC11663,knock-down lowers aggregates,inactive
SNF4Agamma (GeneID 42515),DRSC13461,knock-down lowers aggregates,inactive
DnaJ-1 (GeneID 38643),DRSC11145,knock-down raises aggregates,active
GATAe (GeneID 41945),DRSC14223,knock-down raises aggregates,inactive
IntS12 (GeneID 43227),DRSC15818,knock-down raises aggregates,inactive
cactin (GeneID 33043),DRSC20576,knock-down lowers aggregates,active
vtd (GeneID 3354896),DRSC20839,knock-down lowers aggregates,inactive
alphaTub67C (GeneID 39130),DRSC11321,knock-down lowers aggregates,inactive
Cdc16 (GeneID 42753),DRSC16920,knock-down lowers aggregates,inactive
RpL22 (GeneID 31022),DRSC18707,knock-down lowers aggregates,inactive
RpL22 (GeneID 31022),DRSC22819,knock-down lowers aggregates,inactive
Sec23 (GeneID 40694),DRSC12387,knock-down lowers aggregates,active
Atf-2 (GeneID 37978),DRSC04413,knock-down lowers aggregates,inactive
Jra (GeneID 36057),DRSC07447,knock-down raises aggregates,active
U2A (GeneID 35713),DRSC06445,knock-down lowers aggregates,inactive
CG9775 (GeneID 40576),DRSC22667,knock-down lowers aggregates,active
eIF2gamma (GeneID 41843),DRSC13081,knock-down lowers aggregates,inactive
Vha36-1 (GeneID 44702),DRSC07098,knock-down raises aggregates,inactive
RpL19 (GeneID 37995),DRSC04649,knock-down lowers aggregates,inactive
CG14641 (GeneID 40529),DRSC12227,knock-down lowers aggregates,inactive
alph (GeneID 43481),DRSC15398,knock-down raises aggregates,active
RpL23 (GeneID 37628),DRSC04648,knock-down lowers aggregates,inactive
ssp (GeneID 39375),DRSC10252,knock-down raises aggregates,active
Rab11 (GeneID 42501),DRSC16809,knock-down lowers aggregates,active
Ski6 (GeneID 34721),DRSC02491,knock-down lowers aggregates,inactive
Rpn10 (GeneID 40388),DRSC11876,knock-down lowers aggregates,active
Prosalpha2 (GeneID 41531),DRSC16798,knock-down lowers aggregates,inactive
stg (GeneID 43466),DRSC17071,knock-down raises aggregates,inactive
Cbp80 (GeneID 44409),DRSC18450,knock-down lowers aggregates,inactive
Rpn2 (GeneID 43449),DRSC16839,knock-down lowers aggregates,inactive
pzg (GeneID 40351),DRSC11848,knock-down raises aggregates,active
Prp8 (GeneID 36304),DRSC07293,knock-down lowers aggregates,inactive
CG12093 (GeneID 38343),DRSC08252,knock-down raises aggregates,inactive
Polr2H (GeneID 40415),DRSC11642,knock-down lowers aggregates,inactive
Mes2 (GeneID 40514),DRSC11593,knock-down lowers aggregates,inactive
CG13428 (GeneID 37317),DRSC06390,knock-down lowers aggregates,inactive
eIF3b (GeneID 36981),DRSC06900,knock-down lowers aggregates,active
mRpS9 (GeneID 40932),DRSC15456,knock-down lowers aggregates,inactive
pths (GeneID 35379),DRSC03171,knock-down lowers aggregates,inactive
RpL13A (GeneID 40687),DRSC12265,knock-down lowers aggregates,inactive
Ctr1A (GeneID 31601),DRSC18336,knock-down lowers aggregates,inactive
Taf6 (GeneID 40134),DRSC11299,knock-down raises aggregates,inactive
CG5808 (GeneID 42957),DRSC14124,knock-down lowers aggregates,inactive
RpL27 (GeneID 43103),DRSC15638,knock-down lowers aggregates,inactive
Mal-B1 (GeneID 34597),DRSC02416,knock-down lowers aggregates,inactive
r (GeneID 32640),DRSC19813,knock-down lowers aggregates,inactive
r (GeneID 32640),DRSC19814,knock-down lowers aggregates,inactive

As entered above.
omd (GeneID 41674) [DRSC16507], call → active
For “call”, Polr2L (GeneID 42942) [DRSC14630] shows inactive
Result for Mfap1 (GeneID 38256) [DRSC08154] in “aggregation phenotype”: knock-down lowers aggregates
For “call”, Pitslre (GeneID 40292) [DRSC23346] shows inactive
Entry of eIF2gamma (GeneID 41843) [DRSC13081] under “aggregation phenotype”: knock-down lowers aggregates
Under “aggregation phenotype”, eIF3b (GeneID 36981) [DRSC06900] is entered as knock-down lowers aggregates
